Data: the supplement of paper PMC6078165

Tested on: MDAMB436
Experiment: relative JC-1 red fluorescence (viability) vs pre-drug, coculture with fibroblast (fraction); higher = more viable cancer cells
Method: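 JC-1 labelled TNBC cells cocultured 1:1 (1,500 cells each) with CellTrace Violet stained primary or stromal fibroblasts in 384-well plates in FluoroBrite medium, treated with one of 42 anticancer drugs at 0.1, 1, 10 or 100 uM. JC-1 red fluorescence (mitochondrial integrity in cancer cells only) was read by plate reader every 8 h for 72 h. Values are normalised to each well's pre-drug value. The stock of one drug was tenfold lower, so its dose labels may be too high.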

CC(=O)O[C@H]1C(=O)[C@@]2(C)[C@H]([C@H](OC(=O)c3ccccc3)[C@]3(O)C[C@H](OC(=O)[C@H](O)[C@@H](NC(=O)c4ccccc4)c4ccccc4)C(C)=C1C3(C)C)[C@]1(OC(C)=O)CO[C@@H]1C[C@@H]2O [Paclitaxel]
relative JC-1 red fluorescence
Details | 8 h | 16 h | 24 h | 32 h | 40 h | 48 h | 56 h | 64 h | 72 h
0.1 µM, coculture fibroblast: C12385 | 0.8273 | 0.6798 | 0.6503 | 0.5685 | 0.52 | 0.49 | 0.471 | 0.459 | 0.46
0.1 µM, coculture fibroblast: H6013 | 0.871 | 0.751 | 0.768 | 0.783 | 0.803 | 0.845 | 0.846 | 0.818 | 0.844
0.1 µM, coculture fibroblast: H6019 | 0.73326 | 0.633 | 0.615 | 0.554 | 0.532 | 0.528 | 0.515 | 0.516 | 0.509
0.1 µM, coculture fibroblast: H6076 | 0.713 | 0.6313 | 0.628 | 0.604 | 0.613 | 0.6 | 0.641 | 0.655 | 0.662
0.1 µM, coculture fibroblast: H6231 | 0.763 | 0.679 | 0.65125 | 0.5779 | 0.5599 | 0.5372 | 0.5158 | 0.497 | 0.4834
0.1 µM, coculture fibroblast: HADF | 0.8277 | 0.7558 | 0.689 | 0.6671 | 0.643 | 0.657 | 0.615 | 0.6068 | 0.5745
0.1 µM, coculture fibroblast: HCFa | 0.8 | 0.663 | 0.645 | 0.61 | 0.588 | 0.602 | 0.547 | 0.551 | 0.497
0.1 µM, coculture fibroblast: HCPF | 0.7655 | 0.6834 | 0.6488 | 0.6011 | 0.59 | 0.567 | 0.55 | 0.531 | 0.521
0.1 µM, coculture fibroblast: HHSteC | 0.878 | 0.8 | 0.77 | 0.73 | 0.685 | 0.677 | 0.614 | 0.592 | 0.5512
0.1 µM, coculture fibroblast: HMF | 0.765 | 0.658 | 0.6374 | 0.607 | 0.597 | 0.57 | 0.576 | 0.547 | 0.551
0.1 µM, coculture fibroblast: HPFa | 0.909 | 0.876 | 0.814 | 0.76 | 0.7398 | 0.74609 | 0.6811 | 0.6636 | 0.621
0.1 µM, coculture fibroblast: HUF | 0.838 | 0.723 | 0.706 | 0.641 | 0.585 | 0.56 | 0.534 | 0.528 | 0.518
0.1 µM, coculture fibroblast: Hs5 | 0.809 | 0.743 | 0.7264 | 0.6812 | 0.673 | 0.633 | 0.659 | 0.6251 | 0.633
0.1 µM, coculture fibroblast: Hs27A | 0.808 | 0.756 | 0.732 | 0.728 | 0.74 | 0.803 | 0.757 | 0.763 | 0.707
0.1 µM, coculture fibroblast: Hs343T | 0.754 | 0.664 | 0.634 | 0.59 | 0.58 | 0.547 | 0.541 | 0.526 | 0.524
0.1 µM, coculture fibroblast: WS1 | 0.797 | 0.6545 | 0.644 | 0.575 | 0.537 | 0.513 | 0.497 | 0.48 | 0.486
1 µM, coculture fibroblast: C12385 | 0.8158 | 0.6885 | 0.6689 | 0.589 | 0.54 | 0.52 | 0.504 | 0.498 | 0.507
1 µM, coculture fibroblast: H6013 | 0.8528 | 0.736 | 0.746 | 0.755 | 0.754 | 0.796 | 0.784 | 0.8 | 0.789
1 µM, coculture fibroblast: H6019 | 0.7837 | 0.682 | 0.661 | 0.591 | 0.558 | 0.55 | 0.5309 | 0.516 | 0.507
1 µM, coculture fibroblast: H6076 | 0.747 | 0.694 | 0.682 | 0.647 | 0.633 | 0.623 | 0.65984 | 0.667 | 0.6856
1 µM, coculture fibroblast: H6231 | 0.818 | 0.7334 | 0.742 | 0.673 | 0.647 | 0.626 | 0.622 | 0.609 | 0.602
1 µM, coculture fibroblast: HADF | 0.834 | 0.758 | 0.737 | 0.712 | 0.702 | 0.72 | 0.678 | 0.678 | 0.647
1 µM, coculture fibroblast: HCFa | 0.845 | 0.744 | 0.724 | 0.688 | 0.663 | 0.678 | 0.616 | 0.605 | 0.555
1 µM, coculture fibroblast: HCPF | 0.839 | 0.728 | 0.719 | 0.646 | 0.607 | 0.5639 | 0.536 | 0.518 | 0.491
1 µM, coculture fibroblast: HHSteC | 0.853 | 0.774 | 0.755 | 0.721 | 0.71 | 0.724 | 0.674 | 0.661 | 0.619
1 µM, coculture fibroblast: HMF | 0.801 | 0.683 | 0.674 | 0.627 | 0.594 | 0.56 | 0.553 | 0.54 | 0.527
1 µM, coculture fibroblast: HPFa | 0.8881 | 0.815 | 0.783 | 0.745 | 0.729 | 0.74 | 0.669 | 0.652 | 0.609
1 µM, coculture fibroblast: HUF | 0.85302 | 0.7497 | 0.724 | 0.642 | 0.589 | 0.557 | 0.533 | 0.51 | 0.504
1 µM, coculture fibroblast: Hs5 | 0.771 | 0.73 | 0.72 | 0.659 | 0.642 | 0.609 | 0.623 | 0.607 | 0.614
1 µM, coculture fibroblast: Hs27A | 0.858 | 0.804 | 0.781 | 0.757 | 0.7513 | 0.82 | 0.7518 | 0.759 | 0.703
1 µM, coculture fibroblast: Hs343T | 0.785 | 0.675 | 0.663 | 0.619 | 0.582 | 0.548 | 0.543 | 0.529 | 0.53
1 µM, coculture fibroblast: WS1 | 0.7867 | 0.6903 | 0.7094 | 0.6396 | 0.6139 | 0.5946 | 0.5844 | 0.577 | 0.572
10 µM, coculture fibroblast: C12385 | 0.859 | 0.774 | 0.7523 | 0.6875 | 0.6342 | 0.6102 | 0.5827 | 0.5661 | 0.562
10 µM, coculture fibroblast: H6013 | 0.871 | 0.905 | 0.868 | 0.863 | 0.843 | 0.8495 | 0.833 | 0.81 | 0.78
10 µM, coculture fibroblast: H6019 | 0.8048 | 0.736 | 0.728 | 0.674 | 0.652 | 0.643 | 0.624 | 0.62 | 0.612
10 µM, coculture fibroblast: H6076 | 0.7692 | 0.636 | 0.587 | 0.557 | 0.541 | 0.52435 | 0.538 | 0.541 | 0.55
10 µM, coculture fibroblast: H6231 | 0.804 | 0.717 | 0.63 | 0.57 | 0.526 | 0.483 | 0.46 | 0.4306 | 0.412
10 µM, coculture fibroblast: HADF | 0.9069 | 0.846 | 0.811 | 0.78 | 0.749 | 0.751 | 0.71 | 0.7 | 0.659
10 µM, coculture fibroblast: HCFa | 0.814 | 0.738 | 0.709 | 0.681 | 0.652 | 0.676 | 0.623 | 0.626 | 0.589
10 µM, coculture fibroblast: HCPF | 0.8038 | 0.695 | 0.594 | 0.546 | 0.506 | 0.466 | 0.439 | 0.415 | 0.399
10 µM, coculture fibroblast: HHSteC | 0.904 | 0.851 | 0.827 | 0.794 | 0.776 | 0.786 | 0.729 | 0.723 | 0.683
10 µM, coculture fibroblast: HMF | 0.7926 | 0.683 | 0.619 | 0.582 | 0.566 | 0.529 | 0.513 | 0.497 | 0.492
10 µM, coculture fibroblast: HPFa | 0.913 | 0.862 | 0.801 | 0.768 | 0.7449 | 0.7462 | 0.686 | 0.678 | 0.6347
10 µM, coculture fibroblast: HUF | 0.883 | 0.801 | 0.78 | 0.699 | 0.652 | 0.626 | 0.601 | 0.589 | 0.587
10 µM, coculture fibroblast: Hs5 | 0.847 | 0.768 | 0.703 | 0.648 | 0.616 | 0.563 | 0.555 | 0.521 | 0.513
10 µM, coculture fibroblast: Hs27A | 0.865 | 0.82 | 0.813 | 0.81 | 0.799 | 0.84 | 0.788 | 0.789 | 0.728
10 µM, coculture fibroblast: Hs343T | 0.85 | 0.744 | 0.662 | 0.618 | 0.578 | 0.554 | 0.521 | 0.5004 | 0.49
10 µM, coculture fibroblast: WS1 | 0.852 | 0.758 | 0.7363 | 0.658 | 0.612 | 0.588 | 0.565 | 0.528 | 0.517

Values are relative to the signal before dosing, not to a vehicle control; the signal also falls without drug.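 Labels refer to human fibroblasts, largely primary: uterine (C12385, HUF), lung (H6013), bone (Hs27A), adrenal (HADF), skin (WS1), plus mammary HMF and breast cancer-associated Hs343T. Cancer lines are basal-like or mesenchymal-like triple-negative breast cancer. The paper counts as hits responses shifting over 3x the replicate standard deviation. The tissue of the other fibroblasts is not given here.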
